Binding data for one substance are collected here from article PMC8437979.

Amino acid sequences for entries named in this document (tags omitted). A change or cut given only in a name is not applied to a line headed by its entry.
UniProt Q99942: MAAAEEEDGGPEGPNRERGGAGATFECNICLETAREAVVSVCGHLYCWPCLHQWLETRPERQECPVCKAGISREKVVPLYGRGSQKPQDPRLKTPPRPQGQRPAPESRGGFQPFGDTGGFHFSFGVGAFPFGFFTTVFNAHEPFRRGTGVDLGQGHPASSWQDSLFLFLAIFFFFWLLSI
UniProt Q09028: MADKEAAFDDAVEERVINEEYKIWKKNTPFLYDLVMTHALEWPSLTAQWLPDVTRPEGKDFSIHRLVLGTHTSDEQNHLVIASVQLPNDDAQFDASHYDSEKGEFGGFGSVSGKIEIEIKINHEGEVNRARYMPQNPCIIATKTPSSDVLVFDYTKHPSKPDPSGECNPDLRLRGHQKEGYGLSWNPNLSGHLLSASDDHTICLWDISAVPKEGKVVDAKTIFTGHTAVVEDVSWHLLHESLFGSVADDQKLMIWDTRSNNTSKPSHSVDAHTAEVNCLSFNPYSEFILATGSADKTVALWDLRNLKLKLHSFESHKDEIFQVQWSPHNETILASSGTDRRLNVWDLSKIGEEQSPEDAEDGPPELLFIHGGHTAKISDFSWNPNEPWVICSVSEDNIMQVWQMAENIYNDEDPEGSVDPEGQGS

These are yes or no findings as the source states them, for the method shown. In cells and extracts the contact can be indirect. Binding can be weak; no strength is given.

The assay concerns the target Flag-tagged RNF5 catalytically inactive RING domain mutant (RM) (UniProt Q99942). The assay is described as follows: co-IP; HEK293T cells transfected with Flag-tagged RNF5 WT, RM or ∆CT; endogenous RBBP4 detected by western blot; MG132 (10 µm, 4 h) before lysis; TBS-lysis buffer (50 mM Tris-HCl pH 7.5, 150 mM NaCl, 0.5% Nonidet P-40), protein A/G agarose.

As to “Endogenous RBBP4 (retinoblastoma binding protein 4) of HEK293T cells (from UniProt Q09028 1-425)”, the binding result is given as “binds”.
